Source: article PMC3565976
No constants are given. Whether binding was seen depends on the method and setting. In cells and extracts the contact can be indirect. Some binding calls cover weakened binding; strength is not graded here.

Protein sequences, listed by entry. Tags and fused reporters are not part of them.
UniProt O70201: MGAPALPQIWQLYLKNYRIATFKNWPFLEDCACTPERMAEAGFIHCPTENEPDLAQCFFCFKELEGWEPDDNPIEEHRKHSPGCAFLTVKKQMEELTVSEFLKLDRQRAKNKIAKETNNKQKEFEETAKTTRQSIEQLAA
UniProt A0A9J7CH92: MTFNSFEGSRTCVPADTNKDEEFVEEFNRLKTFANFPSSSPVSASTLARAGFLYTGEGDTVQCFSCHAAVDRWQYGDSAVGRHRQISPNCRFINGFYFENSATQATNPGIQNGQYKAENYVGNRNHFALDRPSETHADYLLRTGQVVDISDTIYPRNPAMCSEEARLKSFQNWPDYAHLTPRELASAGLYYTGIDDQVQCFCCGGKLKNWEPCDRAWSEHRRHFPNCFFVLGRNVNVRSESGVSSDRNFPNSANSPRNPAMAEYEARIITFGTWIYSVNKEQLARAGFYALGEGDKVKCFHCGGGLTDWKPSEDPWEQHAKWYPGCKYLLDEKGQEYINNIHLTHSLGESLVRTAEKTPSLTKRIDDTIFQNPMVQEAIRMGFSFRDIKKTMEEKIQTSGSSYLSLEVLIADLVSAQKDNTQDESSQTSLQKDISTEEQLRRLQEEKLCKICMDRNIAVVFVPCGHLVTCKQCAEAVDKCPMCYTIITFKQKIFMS

Legend:
[1] = target: enhanced green fluorescence protein-tagged Survivin (EGFP-Survivin) (mouse) (UniProt O70201); test: co-IP; detergent-soluble cytoplasmic fraction of CHE-p53-/- cells transfected with pEGFP-Survivin; precipitated with rabbit anti-XIAP polyclonal antibody on protein A Dynabeads and blotted with anti-GFP, and the reverse (anti-GFP precipitate blotted with anti-XIAP)
[2] = target: X-linked inhibitor of apoptosis protein (XIAP) (Chinese hamster (endogenous in CHE cells)); test: as above

Substance | binding [1] | binding [2]
X-linked inhibitor of apoptosis protein (XIAP) (from UniProt A0A9J7CH92 1-496) | binds | 
enhanced green fluorescence protein-tagged Survivin (EGFP-Survivin) (from UniProt O70201 1-140) |  | binds
